# Data: PubChem BioAssay AID624297 (National Center for Advancing Translational Sciences (NCATS), 2012)
# Hit rate of the full screen: of about 340,000 compounds, about 6,200 (1.8%) were called active. Inconclusive results, whose numbers are uncertain, are shown with a selection of clear calls. The call rests on the fitted dose curve; in most records, active means well fitted activation curve with a large enough effect; inconclusive means small, poorly fitted or top-dose-only effect; inactive means no such curve, though single readings can be large or run the other way. Where the call is inconclusive, the potency comes from a doubtful curve fit.
# Test: A quantitative high throughput screen for small molecules that induce DNA re-replication in SW480 colon adenocarcinoma cells. Further: nearly all actives have a fitted effect of over 55% in size.
# Conditions: Hoechst DNA content imaging, 48 h; series mostly up to 46.1 µM
# How it was run: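 Per well, 250 cells were exposed to pinned compound for 48 hr. Nuclear DNA was visualised with Hoechst (40 min, 37 C) and total object intensity recorded by fluorescence scanning.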
# Potency means the concentration at half of the fitted maximal effect.
row,Compound,Potency
1,COc1cccc(C(=O)c2cc3cc(Cl)ccc3[nH]2)c1,"inconclusive: 29.1 µM [activator, single point]"
2,CCN(CC)S(=O)(=O)c1ccc(N2CCCC2)c(NC(=O)c2ccc([N+](=O)[O-])o2)c1,active: 13 µM
3,O=C(C1=C[C@@H](c2ccc3c(c2)OCO3)C[C@@H](OCc2ccc(CO)cc2)O1)N1CCOCC1,inactive
4,CCOc1ccc(N(CCC#N)S(=O)(=O)c2ccc(OC)cc2)cc1,"inconclusive: 18.4 µM [activator, single point]"
5,COc1ccc(OC)c(-c2nnc3n2N=C(c2ccc(OC)c(OCC4CC4)c2)CS3)c1,active: 2.31 µM
6,Cc1ccc(S(=O)(=O)N2CCOCC2)cc1NC(=O)c1cc([N+](=O)[O-])ccc1N1CCOCC1,inactive
7,CC(=O)c1cccc(NC(=O)/C(=C/c2ccncc2)NC(=O)c2ccccc2)c1,"inconclusive: 29.1 µM [activator, single point]"
8,COc1ccc2c(c1)c(C(=O)N/N=C/c1ccc(Br)cc1)c(C)n2C,active: 10.3 µM
9,CC(C)N(Cc1ccccc1)C(=O)COC(=O)c1cnc(Cl)c(Cl)c1,inactive
10,O=C1CCC(C(=O)OCC(=O)N2N=C3/C(=C\c4ccccc4)CCCC3C2c2ccccc2)N1 (centres undefined),inactive
11,CSc1ncc(Cl)c(C(=O)Nc2cccc3ccccc23)n1,"inconclusive: 23.1 µM [activator, single point]"
12,O=C(Nc1cccc(Cl)c1)N(CCN1CCOCC1)Cc1cccc(Cl)c1,"inconclusive: 29.1 µM [activator, single point]"
13,CCOc1ccc(OCc2cccc(C(=O)Nc3ccc(CN4CCCCC4)cc3)c2)cc1,"inconclusive: 18.4 µM [activator, single point]"
14,CC(=O)c1cccc(NC(=O)CSc2nnc(-c3cccnc3)o2)c1,"inconclusive: 29.1 µM [activator, single point]"
15,Cc1ccc(S(=O)(=O)c2c(C(=O)c3ccccc3)cnc3cc4c(cc23)OCCO4)cc1,inactive
16,C=CC[C@@H](CC(=O)NCCO)C(=O)N[C@H](C)COC(=O)[C@@H](CC=C)Cc1ccc(F)cc1,inactive
17,NC(=S)n1[nH]c(-c2ccc([N+](=O)[O-])cc2)c(N=Nc2cccc([N+](=O)[O-])c2)c1=O,"inconclusive: 16.4 µM [activator, single point]"
18,COc1ccc(C(=O)OCC(=O)Nc2nnc(-c3ccccc3)o2)cc1,"inconclusive: 29.1 µM [activator, single point]"
19,CC1CCC(=NO)C(=NO)C1 (centres undefined),"inconclusive: 29.1 µM [activator, single point]"

# Retrieved by compound from the list above (2):
row,Compound,Potency
6,Cc1ccc(S(=O)(=O)N2CCOCC2)cc1NC(=O)c1cc([N+](=O)[O-])ccc1N1CCOCC1,inactive
8,COc1ccc2c(c1)c(C(=O)N/N=C/c1ccc(Br)cc1)c(C)n2C,active: 10.3 µM
